Source: PubChem BioAssay AID328 (DTP/NCI, 2004)
The list is a part of this screen's results and no random one: it is rich in T/C values a quarter to a half above the control, in often repeated tests (any T/C) and in doses without a T/C. Further doses and runs are listed elsewhere. T/C is the treated group as % of the vehicle group. Some doses have a count of surviving animals in place of a T/C: the source holds a T/C of zero for them, seemingly a mark for toxic or unscored doses. Some doses without a T/C left all or most animals alive at the check, yet need not have been tolerated: the source hardly ever lists a survival T/C far under the control, and the zero likely stands for such cases as well. Survivors were counted at the toxicity check, usually on the fifth day, unless a day is given; later deaths do not show. Schedules are NCI's codes, taken here to give the interval after Q, in days (D) or hours (H), and the number of doses after X. Where survival is the endpoint, the PubChem record calls one and a half times the control and up active, and a quarter to a half above the control has no call in these data; cut-offs in other NCI protocols can differ. Some entries hold several experiments; the results are listed from low to high. Some T/C values carry the count of animals alive at the toxicity check (mostly the fifth day); where none is given, no animal had died by that day.

System: BDF1 mice, P388 leukemia ip, median survival T/C
Test: NCI In Vivo Anticancer Drug Screen. Data for tumor model P388 Leukemia (intraperitoneal) in B6D2F1 (BDF1) mice
Conditions: T/C endpoint: median survival time, higher T/C = longer survival
Method in brief: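 Reported as T/C, where T is the survival measurement in dosed animals and C the same measurement in vehicle controls.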

[1] = dose: 200.0 mg/kg/injection, schedule: Q04DX003 (ip), vehicle: saline with Tween-80
[2] = dose: 400.0 mg/kg/injection, schedule: Q04DX003 (ip), vehicle: saline with Tween-80
[3] = dose: 400.0 mg/kg/injection, schedule: Q01DX009 (ip), vehicle: saline with Tween-80
[4] = dose: 100.0 mg/kg/injection, schedule: Q01DX009 (ip), vehicle: saline with Tween-80
[5] = dose: 200.0 mg/kg/injection, schedule: Q01DX009 (ip), vehicle: saline with Tween-80
[6] = dose: 12.0 mg/kg/injection, schedule: Q01DX009 (ip), vehicle: saline
[7] = dose: 200.0 mg/kg/injection, schedule: Q01DX009 (ip), vehicle: Klucel (hydroxypropylcellulose) (HPC)
[8] = dose: 100.0 mg/kg/injection, schedule: Q04DX003 (ip), vehicle: saline
[9] = dose: 200.0 mg/kg/injection, schedule: Q04DX003 (ip), vehicle: saline
[10] = dose: 400.0 mg/kg/injection, schedule: Q04DX003 (ip), vehicle: saline
[11] = dose: 200.0 mg/kg/injection, schedule: Q01DX009 (ip), vehicle: saline

`COc1cc(/C=C/c2ccc3ccccc3n2)cc(OC)c1OC` was tested, and the survivor count [1] was 6 of 6 and the survivor count [2] was 6 of 6.

With `CC(C)(C)OC(=O)NNC(=O)c1ccc([N+](=O)[O-])cc1` the survivor count (dose: 100.0 mg/kg/injection, schedule: Q01DX009 (ip), vehicle: Klucel (hydroxypropylcellulose) (HPC)) was 6 of 6.

In the case of `CC(=O)/C=C/c1ccccc1`, the T/C [3] was 143 % of control and the survivor count (dose: 600.0 mg/kg/injection, schedule: Q01DX009 (ip), vehicle: saline with Tween-80) was 0 of 6.

In the case of `ClC1(Cl)Cc2ccccc21`, the T/C [1] was 128 % of control and the T/C [2] was 133 % of control.

In the case of `C[C@H]1C[C@H]2[C@@H]3CC[C@](O)(C(=O)CO)[C@@]3(C)C[C@H](O)[C@]2(F)[C@@]2(C)C=CC(=O)C=C12`, the survivor count [4] was 6 of 6, the survivor count [5] was 5 of 6 and the survivor count [3] was 5 of 6.

In the case of `NC(CS/C(Cl)=C/Cl)C(=O)O` (stereo not drawn), the survivor count (dose: 1.5 mg/kg/injection, schedule: Q01DX009 (ip), vehicle: saline) was 6 of 6, the survivor count [6] was 6 of 6 and the survivor count (dose: 40.0 mg/kg/injection, schedule: Q01DX009 (ip), vehicle: saline) was 2 of 6.

`C/C=C1/C(=O)O[C@]23C=C[C@@H]4C(C(=O)OC)=CO[C@H](O[C@@H]12)[C@@H]43` was tested, and the T/C (dose: 620.0 micrograms/kg/injection, schedule: Q01DX009 (ip), vehicle: Klucel (hydroxypropylcellulose) (HPC)) was 126 % of control.

For `CC(C)=NOC(=O)Nc1ccc(Cl)cc1`, the survivor count [7] was 6 of 6.

With `COc1cc([C@@H]2c3cc4c(c(O)c3C[C@H]3COC(=O)[C@@H]32)OCO4)cc(OC)c1O` the T/C (dose: 0.5 mg/kg/injection, schedule: Q01DX010 (ip), vehicle: carboxymethylcellulose (CMC)) was 125 % of control, the T/C (dose: 1.0 mg/kg/injection, schedule: Q01DX001 (ip), vehicle: other) was 126 % of control and the survivor count (dose: 1.0 mg/kg/injection, schedule: Q01DX010 (ip), vehicle: other) was 6 of 6. For the same compound, the T/C (dose: 2.0 mg/kg/injection, schedule: Q01DX001 (ip), vehicle: other) was 126 % of control, the survivor count (dose: 2.0 mg/kg/injection, schedule: Q01DX010 (ip), vehicle: carboxymethylcellulose (CMC)) was 4 of 6 and the survivor count (dose: 2.0 mg/kg/injection, schedule: Q01DX010 (ip), vehicle: other) was 4 of 6. For the same compound, the T/C (dose: 4.0 mg/kg/injection, schedule: Q01DX001 (ip), vehicle: other) was 126 % of control [4 of 6 alive], the survivor count (dose: 4.0 mg/kg/injection, schedule: Q01DX010 (ip), vehicle: carboxymethylcellulose (CMC)) was 1 of 6 and the survivor count (dose: 4.0 mg/kg/injection, schedule: Q01DX010 (ip), vehicle: other) was 3 of 6. For the same compound, the T/C (dose: 125.0 micrograms/kg/injection, schedule: Q01DX010 (ip), vehicle: other) was 135 % of control and the T/C (dose: 250.0 micrograms/kg/injection, schedule: Q01DX010 (ip), vehicle: other) was 140 % of control.

With `Cc1cc(N=NC(N)=S)c2ccccc2c1O` the survivor count [3] was 6 of 6.

In the case of `CC(=O)N(C)Nc1ccccc1`, the survivor count [1] was 5 of 6 and the survivor count [2] was 3 of 6.

In the case of `CSCC(N)CO` (stereo not drawn), the T/C [8] was 138 % of control.

`CC1(C)O[Te]2(OC1(C)C)OC(C)(C)C(C)(C)O2` was tested, and the survivor count (dose: 50.0 mg/kg/injection, schedule: Q01DX001 (ip), vehicle: saline with Tween-80) was 0 of 6.

For `O=C(Cl)OCCOCCOC(=O)Cl`, the survivor count [8] was 3 of 6, the survivor count [9] was 5 of 6 and the survivor count [10] was 6 of 6.

For `O=C(O)c1c(Cl)c(Cl)c(Cl)c(C(=O)O)c1Cl`, the survivor count [7] was 6 of 6.

In the case of `CC1(C)OC2C(CO)OC(n3cnc4c(N)ncnc43)C2O1` (stereo not drawn), the survivor count (dose: 150.0 mg/kg/injection, schedule: Q04DX003 (ip), vehicle: Klucel (hydroxypropylcellulose) (HPC)) was 4 of 6.

With `OC12CCC[N+]1(Cc1ccccc1)CCC2` (stereo not drawn) the survivor count (dose: 50.0 mg/kg/injection, schedule: Q01DX010 (ip), vehicle: carboxymethylcellulose (CMC)) was 6 of 6 and the survivor count (dose: 100.0 mg/kg/injection, schedule: Q01DX010 (ip), vehicle: carboxymethylcellulose (CMC)) was 3 of 6.

With `Cc1ccc(NCCNCC(C)(C)O)c2c(=O)c3ccccc3sc12` the T/C (dose: 115.0 mg/kg/injection, schedule: Q04DX003 (ip), vehicle: saline) was 131 % of control [5 of 6 alive] and the survivor count (dose: 170.0 mg/kg/injection, schedule: Q04DX003 (ip), vehicle: saline) was 3 of 6.

With `CC1(C)C=C(C(Br)c2ccc(Cl)cc2)C(=O)c2ccccc21` (stereo not drawn) the T/C (dose: 50.0 mg/kg/injection, schedule: Q01DX009 (ip), vehicle: saline) was 130 % of control and the T/C [11] was 130 % of control.

`CC1C[N+](C)(C)NC1=O` (stereo not drawn) was tested, and the survivor count (dose: 100.0 mg/kg/injection, schedule: Q01DX001 (ip), vehicle: saline) was 6 of 6.

`C=C1C(=O)[C@]23C[C@H]1CC[C@H]2[C@@]12CO[C@@H](O)[C@@H]1C(C)(C)[C@@H](O)C[C@@H]2OC3=O` was tested, and the T/C (dose: 6.25 mg/kg/injection, schedule: Q01DX009 (ip), vehicle: saline with Tween-80) was 135 % of control, the T/C (dose: 12.5 mg/kg/injection, schedule: Q01DX009 (ip), vehicle: saline with Tween-80) was 125 and 132 % of control and the T/C (dose: 25.0 mg/kg/injection, schedule: Q01DX009 (ip), vehicle: saline with Tween-80) was 131 [5 of 6 alive] and 137 % of control.

`CNC(=O)c1nc(C)c(C)nc1OCc1ccccc1` was tested, and the T/C [11] was 129 % of control.

With `C[N+](C)(Cn1nc(Cl)c2cc([N+](=O)[O-])ccc21)Cn1nc(Cl)c2cc([N+](=O)[O-])ccc21` the survivor count [2] was 0 of 6.

With `CC12CCC(C(N)C1=O)C2(C)C` (stereo not drawn) the survivor count (dose: 300.0 mg/kg/injection, schedule: Q01DX009 (ip), vehicle: saline) was 4 of 6 and the survivor count [10] was 0 of 6.

`O=C1CCC2N1CCC1CCCCN12` (stereo not drawn) was tested, and the survivor count (dose: 200.0 mg/kg/injection, schedule: Q01DX009 (ip), vehicle: water) was 6 of 6, the survivor count (dose: 300.0 mg/kg/injection, schedule: Q01DX009 (ip), vehicle: water) was 0 of 6 and the survivor count (dose: 400.0 mg/kg/injection, schedule: Q04DX003 (ip), vehicle: water) was 4 of 6.

With `CCN(CC)CCOC(=O)c1ccccc1Nc1cccc(C)c1` the survivor count (dose: 100.0 mg/kg/injection, schedule: Q01DX009 (ip), vehicle: saline) was 3 of 6 and the survivor count (dose: 350.0 mg/kg/injection, schedule: Q04DX003 (ip), vehicle: saline) was 2 of 6.

In the case of `CC1(C)N=C(N)N=C(N)N1c1cccc(CN)c1`, the survivor count [11] was 0 of 6 and the survivor count [9] was 2 of 6.

`O=C1CCSC(=O)N1SC(Cl)(Cl)Cl` was tested, and the survivor count [4] was 1 of 6, the survivor count [5] was 0 of 6 and the survivor count [3] was 0 of 6.

`O=S(=O)(O)SCCNCCCCCC1CCCCC1` was tested, and the survivor count (dose: 12.0 mg/kg/injection, schedule: Q01DX009 (ip), vehicle: Klucel (hydroxypropylcellulose) (HPC)) was 0 of 6, the T/C [6] was 125 % of control [4 of 6 alive] and the survivor count (dose: 24.0 mg/kg/injection, schedule: Q01DX009 (ip), vehicle: Klucel (hydroxypropylcellulose) (HPC)) was 0 of 6.
